According to paper PMC8492241:
No constants are given. Whether binding was seen depends on the method and setting. Binding seen in cells or lysates may run through a third protein. Some results given as binding are weak or reduced against the parent protein; the word gives no strength.

Amino acid sequences for entries named in this document (tags omitted). Residues count along the entry.
UniProt O00116, residues 59-658: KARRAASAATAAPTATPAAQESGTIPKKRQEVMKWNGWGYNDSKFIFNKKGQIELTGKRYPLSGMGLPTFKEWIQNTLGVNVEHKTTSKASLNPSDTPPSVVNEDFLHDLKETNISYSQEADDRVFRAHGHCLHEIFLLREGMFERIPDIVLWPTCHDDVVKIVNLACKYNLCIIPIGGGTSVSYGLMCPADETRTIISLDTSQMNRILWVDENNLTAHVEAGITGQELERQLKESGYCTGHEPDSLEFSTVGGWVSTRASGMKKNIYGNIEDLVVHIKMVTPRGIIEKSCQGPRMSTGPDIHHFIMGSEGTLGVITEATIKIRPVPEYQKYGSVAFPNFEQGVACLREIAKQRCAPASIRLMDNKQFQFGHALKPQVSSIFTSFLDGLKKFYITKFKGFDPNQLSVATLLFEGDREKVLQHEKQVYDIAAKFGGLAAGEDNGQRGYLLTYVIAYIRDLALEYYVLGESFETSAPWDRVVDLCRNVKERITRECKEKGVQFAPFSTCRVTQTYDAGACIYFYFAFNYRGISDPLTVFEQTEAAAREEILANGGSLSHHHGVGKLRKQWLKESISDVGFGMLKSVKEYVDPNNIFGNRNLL

Target: Alkylglycerone phosphate synthase (human (endogenous in U251)) (UniProt O00116)
Test: co-IP; U251 lysate in RIPA buffer, rabbit anti-AGPS antibody (6 ug in 500 ul total protein) overnight at 4°C, Protein A agarose beads, washed 3 times with RIPA; western blot for AGPS and HNRNPK; control, shR-AGPS1 and shR-AGPS2 cells

binding: binds
Substance: Heterogeneous nuclear ribonucleoprotein K (from UniProt P61978 1-463)
